Experimental data: PubChem BioAssay AID493014 (National Center for Advancing Translational Sciences (NCATS), 2011)
In all, about 340,000 compounds went through this assay and about 170 (0.05%) were called active. Inconclusive results, whose numbers are uncertain, are shown with a selection of clear calls. Calls come from the whole dose curve; as a rule, active = well fitted inhibition curve with a large enough effect in the signal ratio, with a control signal flat (not every such curve was filed as active); inconclusive = small, poorly fitted or top-dose-only effect, or effect the other way, or a change in a side signal; inactive = flat fitted curve, though single readings scatter; the % refers to the signal ratio. Potencies of inconclusive entries are doubtful fits and often do not repeat.

Experiment: qHTS Assay to Find Inhibitors of Chronic Active B-Cell Receptor Signaling;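 for activity change, negative = inhibition: plate controls were basal doxycycline-induced cells for no effect and cells given 10 µM MG132 for full effect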
Conditions: ABC-DLBCL IkBa-CBG/CBR reporter, luminescence ratio (green luciferase fused to IkBa over red control in TMD8 lymphoma cells), 4 h; activity change, negative = inhibition: at 46.1 µM (top of the series)
Outline: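 TMD8 human ABC-DLBCL cells with doxycycline-inducible IκBα–green luciferase fusion and unfused red luciferase, in 0.5% FBS medium; compounds up to 46 uM, 4 h at 37C. Green/red luminescence ratio, filter-overlap corrected, fitted to concentration-response curves.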
Potency is the fitted concentration of half-maximal effect.

SMILES | activity change, negative = inhibition | Potency
COc1cccc(OC)c1CC1SC(=O)NC1=O (configuration not stated) | inactive: 2.83% | –
Clc1ccc(/C=N/N2CCCCC2)cc1 | inconclusive: 16.7% | –
Cn1c(N)c(C(=O)CSc2nnc(C3CC3)n2-c2ccccc2)c(=O)n(C)c1=O | inconclusive: 2.05% | –
CCC(OC(=O)C(C)N1C(=O)C(=O)c2ccccc21)C(=O)Nc1ccccc1OC (configuration not stated) | inconclusive: 0.44% | –
O=C(Nc1ccc(Cl)cc1)Nc1nnc(Cc2ccc([N+](=O)[O-])cc2)s1 | inconclusive: 20.7% | –
CC(=O)NCCc1ccc(O)cc1 | inactive: -0.514% | –
CCOc1ccc2[nH]c(=O)c(CN(CCc3ccccc3)C(=O)N3CCOCC3)cc2c1 | inactive: 6.5% | –
COc1cc2c(cc1OC)[C@@H](NC(=O)COc1ccccc1)[C@H](OCc1ccccc1)C2 | inconclusive: 0.208% | –
Cc1nc2ccc(NC(=O)c3cnc(Cl)c(Cl)c3)cc2s1 | – | inconclusive: 22.4 µM [falling, single point]
Cc1ccc(C(=O)OCC(=O)N2CCCCCC2)c(O)c1 | inconclusive: 0.135% | –
O=C(c1ccc(-c2ccccc2Cl)o1)N1CCCC(C(F)(F)F)C1 (configuration not stated) | inconclusive: -12.4% | –
Cn1c(=N)n(CC(=O)C(C)(C)C)c2ccccc21 | inconclusive: 1.13% | –
Cn1cccc1C(C#N)c1ncc(C(F)(F)F)cc1Cl (configuration not stated) | inconclusive: -0.554% | –
Cc1[nH]c2ccccc2c1C(=O)C(=O)NCCOc1ccccc1 | inconclusive: 17.1% | –
O=C(NCc1ccccc1)c1ccc(-c2ccccc2F)o1 | inconclusive: 6.19% | –
COc1ccc(Cl)cc1NC(=O)NN1CCN(C)CC1 | inconclusive: -1.73% | –
Cc1nn(C(C)(C)C)c(OC(=O)c2ccc3c(c2)OCO3)c1Sc1ccccc1 | – | inconclusive: 13 µM [rising, partial curve, poor fit]
Cn1c(=O)c([N+](=O)[O-])c(Cl)c2ccccc21 | – | inconclusive: 2.82 µM [falling, single point]
COc1ccccc1C1C2=C(CC(C)(C)CC2=O)N(CC(=O)O)C2=C1C(=O)CC(C)(C)C2 | inactive: 7.79% | –
CNC(=O)/C(C#N)=C/c1ccc(OCCOc2ccccc2)cc1 | inconclusive: 2.77% | –
COc1ccccc1N1CCN(C(=S)Nc2ccc(F)cc2)CC1 | inactive: -8.94% | –

SMILES | activity change, negative = inhibition | Potency
COc1ccccc1NC(=O)CN1CCN(CC(=O)Nc2ccc(F)cc2F)CC1 | – | inconclusive: 22.4 µM [falling, partial curve]
COc1cc(C2CC(=O)N3CN(Cc4ccco4)CSC3=C2C#N)ccc1OCc1ccccc1 (configuration not stated) | inconclusive: -17.5% | –
Cc1ccc(N2CC(C(=O)Nc3nc4ccc(S(C)(=O)=O)cc4s3)CC2=O)cc1 (configuration not stated) | inconclusive: -3.92% | –
COc1cccc(C(=O)NCC2(c3ccccc3)CCCC2)c1 | inconclusive: -27.6% | –
CCN(Cc1ccccc1)Cc1ccc(OCc2ccccc2)cc1 | inconclusive: 19.3% | –
CCn1ccnc1CN(C)Cc1nc(-c2ccc3c(c2)OCO3)no1 | inconclusive: 4.03% | –
O=C1C(c2ccccc2)=[N+]([O-])c2ccccc21 | – | inconclusive: 29.1 µM [falling, single point]
COc1cccc(C2=NOC(C(=O)NCc3ccc(F)cc3)C2)c1 (configuration not stated) | – | inconclusive: 14.1 µM [falling, partial curve, poor fit]
O=C(c1c(F)cccc1F)N1CCC(O)(c2cccnc2)CC1 | inconclusive: -2.94% | –
Cc1ccccc1CC(=O)Nc1cc(C(C)(C)C)on1 | inactive: -3.33% | –
COc1cccc(NS(=O)(=O)c2ccc3[nH]cc(C(=O)N(C)C4CCCCC4)c(=O)c3c2)c1 | inactive: 8.97% | –
COc1cc2c(cc1OC)n(CC(=O)c1ccc(F)cc1)c(=O)n1nc(CCn3nc(C)cc3C)nc21 | – | inconclusive: 22.4 µM [falling, partial curve, poor fit]
O=C(c1c(F)cccc1F)N1CCN(c2ncc(Br)cn2)CC1 | inconclusive: 5.46% | –
CC1=NN(c2ccc(Cl)c(C(=O)O)c2)C(=O)/C1=C\c1ccc(-c2ccc(C(=O)O)cc2)o1 | – | inconclusive: 7.08 µM [falling, partial curve, poor fit]
Cc1ccc(-c2noc(-c3ccoc3C)n2)cc1 | inconclusive: -2.21% | –
N#C/C(=C/c1ccccc1[N+](=O)[O-])C(=O)NCc1ccco1 | inconclusive: 8.56% | –
CC(C)Nc1nc(Cl)nc(Nc2ccccc2)n1 | inconclusive: 16% | –
Cc1ccccc1OCC(=O)N/N=C/c1ccc(N2CCOCC2)o1 | – | inconclusive: 11.2 µM [falling, partial curve]
COc1cccc(/C=N\NC(=O)c2sc(N)nc2C)c1OC | – | inconclusive: 29.1 µM [falling, single point]
O=C(NNC(=O)c1ccc(Oc2ccc(C3SCCS3)cc2)o1)c1ccc(Cl)cc1 | – | inconclusive: 10 µM [falling, partial curve, poor fit]
Cc1ccc2nc(C)/c(=N\O)c(C)nc2c1 | inconclusive: 1.54% | –

Pulled by structure from above (two):
SMILES | activity change, negative = inhibition | Potency
COc1cccc(C2=NOC(C(=O)NCc3ccc(F)cc3)C2)c1 (configuration not stated) | – | inconclusive: 14.1 µM [falling, partial curve, poor fit]
O=C(NNC(=O)c1ccc(Oc2ccc(C3SCCS3)cc2)o1)c1ccc(Cl)cc1 | – | inconclusive: 10 µM [falling, partial curve, poor fit]

Remaining list, next part

SMILES | activity change, negative = inhibition | Potency
Clc1ccc(OCCSc2ncccn2)c2ccccc12 | inconclusive: 7.74% | –
COc1ccccc1NC(=O)Cc1cccc2ccccc12 | inactive: -12% | –
CCN(CC)CCCN=Cc1c(O)n(-c2cccc(C)c2)c(=O)c2ccccc12 | inactive: 11% | –
CCCN1CCCc2cc(CN(CCCN3CCOCC3)C(=O)Nc3ccc(CC)cc3)ccc21 | inactive: 1.67% | –
COC(=O)c1ccccc1NC(=O)/C=C/c1ccco1 | – | inconclusive: 20.6 µM [falling, partial curve]
Cc1cc(NC(=O)CCC(=O)N(c2ccccc2)C(C(=O)NC2CCCC2)c2ccccc2C)no1 (configuration not stated) | inconclusive: 1.99% | –
CC(c1ccco1)N(C(=O)Nc1ccc(Cl)cc1)c1ccccn1 (configuration not stated) | inconclusive: 9.48% | –
Cc1ccc(C)c(S(=O)(=O)N2CCC(c3nc4c(nnn4Cc4ccc(F)cc4)c(=O)[nH]3)CC2)c1 | inconclusive: 14.4% | –
CC(C)CCOP(=O)(c1ccc(N(C)C)cc1)C(O)c1ccc(C(C)C)cc1 (configuration not stated) | inconclusive: -12.2% | –
C[n+]1ccccc1/C=C/c1cc(Br)ccc1O | inconclusive: 3.62% | –
CCOC(=O)NCc1ccc(Cl)c(Cl)c1 | inactive: -6.47% | –
CN(C)S(=O)(=O)c1cccc(NC(=O)c2ccc(Sc3nncn3C)c([N+](=O)[O-])c2)c1 | inconclusive: 31.4% | –
Cc1sc2nc(C3CC3)nc(SCC(=O)N3CCc4ccccc4C3)c2c1C | inconclusive: -6.74% | –
CCOC(=O)N1CCN(C(=O)c2ccc(Cn3c(=S)[nH]c4cc5c(cc4c3=O)OCO5)cc2)CC1 | – | inconclusive: 0.259 µM [falling, full curve, poor fit]
O=C(Nc1ccc(F)c([N+](=O)[O-])c1)c1ccc2c(c1)OCCO2 | inconclusive: 1.86% | –
CC(C)(C)OC(=O)CN1C(=O)NC(Cc2c[nH]c3ccccc23)C1=O (configuration not stated) | inconclusive: 2.78% | –
Cc1ccc(OCC(=O)Nc2cccc(-c3nnc(-c4ccccc4)o3)c2)cc1 | inconclusive: 8.89% | –
Cc1cc(N2CCN(C)CC2)nc2ccc(NC(=S)N3CCN(c4ccc(Cl)cc4)CC3)cc12 | inconclusive: -15.2% | –
Cc1cccn2cc(COc3cccc([N+](=O)[O-])c3)nc12 | inconclusive: 11.8% | –
C=CCN(c1ccc(C(=O)Nc2ccc3c(c2)n(C)c(=O)n3C)cc1)S(C)(=O)=O | inconclusive: -4.86% | –
O=c1cc(CSc2ccccc2)[nH]c(=S)[nH]1 | inactive: -11.2% | –

2 consecutive entries out of the list so far:
SMILES | activity change, negative = inhibition | Potency
Cc1cc(N2CCN(C)CC2)nc2ccc(NC(=S)N3CCN(c4ccc(Cl)cc4)CC3)cc12 | inconclusive: -15.2% | –
Cc1cccn2cc(COc3cccc([N+](=O)[O-])c3)nc12 | inconclusive: 11.8% | –

Remaining list, next part.

SMILES | activity change, negative = inhibition | Potency
CCOC(=O)C(=CNc1ccc(NC2=NCC(C)(C)S2)cc1)C(=O)OCC | inconclusive: -3.05% | –
CCOc1ccccc1NC(=O)Cn1nnc(C(=O)NCCc2ccc(OC)c(OC)c2)c1N | – | inconclusive: 22.4 µM [falling, single point]
COc1cccc(/C=N/Nc2nc(Nc3ccccc3)nc(-n3nc(C)cc3C)n2)c1O | – | inconclusive: 1.3 µM [cytotoxic, full curve, poor fit]
Cc1ccc(/C(N)=N/OC(=O)Cc2ccccc2)cc1 | inconclusive: 4.68% | –
NC1=C(c2ccc(F)cc2)C(=O)CS1 | – | inconclusive: 5.01 µM [falling, partial curve, poor fit]
COC(=O)C(NC(C)=O)(Nc1nc(C)cs1)C(F)(F)F (configuration not stated) | inconclusive: 0.417% | –
CC1CCc2sc(C(=O)NN=C3CCC(c4ccccc4)CC3)cc2C1 (configuration not stated) | inconclusive: -4% | –
CC1=Nn2c(nnc2-c2cc(C)[nH]n2)SC1 | inconclusive: 2.42% | –
COc1ccc(CCNC(=O)C2CC3Cn4c(nc5cc(Cl)c(Cl)cc54)C3N2C)cc1 (configuration not stated) | inactive: -4.98% | –
CCCCC/C(=N\NC(=O)CCC(=O)NCc1ccccc1)c1ccccc1 | inactive: 1.37% | –
O=c1oc2ccccc2c(Cl)c1CN1CCCCC1 | – | inconclusive: 12.6 µM [falling, partial curve]
Nc1nncn1C(=O)CCCN1C(=O)c2ccccc2C1=O | – | inconclusive: 0.92 µM [rising, full curve, poor fit]
Cc1ccc(-c2nc(SCC(=O)NCC3CCCO3)c(-c3ccc(C)cc3)[nH]2)cc1 (configuration not stated) | inactive: 0.943% | –
COC(CNC(=O)CSCc1nc(-c2ccc(SC)cc2)oc1C)OC | – | inconclusive: 35.5 µM [rising, single point]
Cc1cc(C)c2c(=O)c(/C=C3\NC(=S)NC3=O)coc2c1 | inconclusive: 3.24% | –
Cc1ccc(S(=O)(=O)N2CCCC2)cc1C(=O)NCCOc1ccccc1 | inactive: 2.11% | –
Cn1cc(CN(Cc2ccccc2)C[C@@H]2CCC(=O)N2)c(-c2ccccc2F)n1 | inconclusive: -8.76% | –
NCCCC[C@@H](C(=O)NCCCCCCCCCCC(=O)N1CCNCC1)n1cc(CCO)nn1 | inactive: 0.723% | –
O=Cc1cn(Cc2ccccc2)nc1-c1cccnc1 | inconclusive: 0.877% | –
